Measured data: PubChem BioAssay AID743454 (Peter MacCallum Cancer Centre, 2014)
Purpose: 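Search for knock-downs that restore vorinostat killing in resistant colon cancer cells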 (primary screen). Cells: human HCT116-VR colon cancer cells, selected for vorinostat resistance. Reagents: siRNA pool against human genes, 40 nM siRNA pool. Time to read-out: vorinostat for 24 h, read-out about 72 h after transfection. Conditions: vorinostat at 2.5 µM final. Measurement: 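Two measures, CellTiter-Fluor viability and luminescent caspase 3/7 activity, each as fold change against same-plate mock wells, mean of duplicates, then screen-wide robust z-score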. Direction: viability robust z-score: higher = more viable cells than screen typical; caspase robust z-score: higher = more caspase 3/7 activity than screen typical. Active means: 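a knock-down is a hit when classed RV1 or RV2 for lowered viability, or CA1 or CA2 for caspase activation; those lethal without drug were dropped; hits were retested singly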.
The whole screen tested about 18,000 reagents; below is a part drawn at random. 450 of them (2.5%) count as active. 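Single biological run; no consistent viability z cut-off exists, so the class columns, not z-scores, define the calls.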 Reagent sequences are not shown.

Depletion of MSTO1 gave: viability hit class no change; caspase hit class no change; viability robust z-score 0.98; caspase robust z-score -0.23; inactive.
Silencing of LAMTOR4 gave: viability hit class no change; caspase hit class no change; viability robust z-score -0.28; caspase robust z-score 0.43; inactive.
Against FRAS1, the values are viability hit class no change; caspase hit class no change; viability robust z-score 0; caspase robust z-score 0.06; inactive.
After knock-down of TSPAN32 the results were viability hit class no change; caspase hit class no change; viability robust z-score 0.13; caspase robust z-score -1.55; inactive.
Silencing of NDUFAF7 resulted in: viability hit class no change; caspase hit class no change; viability robust z-score -1.18; caspase robust z-score -1.12; inactive.
For ZBBX the deposit lists viability hit class no change; caspase hit class no change; viability robust z-score -1.29; caspase robust z-score 1.31; inactive.
Silencing of TRIM22 came out at: viability hit class no change; caspase hit class no change; viability robust z-score 0.79; caspase robust z-score 0.91; inactive.
Silencing of CKLF resulted in: viability hit class no change; caspase hit class no change; viability robust z-score -0.44; caspase robust z-score 0.4; inactive.
Against HEYL the deposit lists viability hit class no change; caspase hit class no change; viability robust z-score 1.87; caspase robust z-score -0.55; inactive.
After knock-down of CCDC88C, the record shows viability hit class no change; caspase hit class no change; viability robust z-score 0.34; caspase robust z-score 0.91; inactive.
Depletion of SST gave: viability hit class no change; caspase hit class no change; viability robust z-score 0.95; caspase robust z-score 0.09; inactive.
After knock-down of ABCC3 the results were viability hit class no change; caspase hit class no change; viability robust z-score -0.34; caspase robust z-score 2.51; inactive.
